According to PubChem BioAssay AID540276 (National Center for Advancing Translational Sciences (NCATS), 2011):
The campaign covered roughly 300,000 compounds. About 5,400 (1.8%) were called active. Inconclusive results, whose numbers are uncertain, are shown with a selection of clear calls. Calls come from the whole dose curve; tested in HEK293 cells. Potencies beside an inconclusive call are fits to weak or partial responses and may not hold up.

test: qHTS for inhibitors of binding or entry into cells for Marburg Virus; conditions: Marburg virus pseudotyped entry inhibition, cell reporter; activity change, negative = inhibition: at 37.8 µM (top of the series) unless noted
% is set by controls: 0 for no effect and ±100 for the full control effect; potency is the fitted concentration of half-maximal effect.

| Structure (SMILES) | Potency | activity change, negative = inhibition |
| --- | --- | --- |
| CCCCOc1ccccc1NC(=O)c1ccco1 | inconclusive: 11.2 µM [inhibitor, partial curve] |  |
| Cc1nc(-c2ccncc2)sc1C(=O)Nc1ccc(Br)cc1 | inconclusive: 3.55 µM [inhibitor, partial curve, poor fit] |  |
| CC(=O)Nc1nonc1-c1nnc(SCC(=O)Nc2c(C)cccc2C)n1-c1ccccc1 | inconclusive: 1.58 µM [inhibitor, partial curve, poor fit] |  |
| CCn1cc(C(=O)NCc2ccc(Cl)cc2)c(=O)c2cc(S(=O)(=O)N3CCc4ccccc4C3)ccc21 | inconclusive: 31.6 µM [activator, partial curve, poor fit] |  |
| FC(F)(F)c1ccccc1NC1=NCCC1 | inconclusive: 3.16 µM [activator, partial curve, poor fit] |  |
| Cc1ccc(NC(=O)CSc2nc(O)c(Cc3ccccc3)c(=O)n2-c2ccccc2)cc1 |  | inactive: 0.24% |
| COc1cc(/C=N/NC(=O)c2c(C)nnn2-c2nonc2N)ccc1O | inconclusive: 7.08 µM [activator, single point] |  |
| O=C(c1cc(-c2ccccc2)nc2ccccc12)N1CCc2ccccc2C1 | inconclusive: 23.1 µM [inhibitor, single point] |  |
| COc1ccc(CC(NC(C)=O)C(=O)NC2CCN(c3nnnn3-c3ccccc3)CC2)cc1 (stereo not drawn) | inconclusive: 0.631 µM [activator, single point] |  |
| CS(=O)(=O)c1ccccc1C(=O)NCCC(c1ccccc1)c1ccccc1 | inconclusive: 29.1 µM [inhibitor, single point] |  |
| CC(=O)c1cccc(NC(=O)NCCc2c[nH]c3ccccc23)c1 |  | inactive: -2.85% [at 46.1 µM] |
| CCCc1cc(=O)n2[nH]c(-c3ccc(Br)cc3)cc2n1 | inconclusive: 1.58 µM [activator, partial curve, poor fit] |  |
| O=C(NCc1ccc2c(c1)OCO2)C(=O)NCC1OCCN1S(=O)(=O)c1ccc(Cl)cc1 (stereo not drawn) | inconclusive: 35.5 µM [inhibitor, single point] |  |
| CCCN(CCC)CCNC(=O)c1cc2c(=O)n(CC)c3ccccc3c2s1 | inconclusive: 1.58 µM [inhibitor, partial curve, poor fit] |  |
| Cn1cccc1C(=O)N/N=C/c1c(Cl)cccc1Cl |  | inactive: -34.4% |
| CCc1ccc2c(Cl)c(C(=O)N/N=C/c3c[nH]c4ccccc34)sc2c1 | inconclusive: 25.1 µM [inhibitor, single point] |  |
| COc1cc(CCC(=O)Nc2nnc(C)s2)cc(OC)c1OC | inconclusive: 1.26 µM [inhibitor, partial curve, poor fit] |  |
| CCOc1cc(S(=O)(=O)Nc2ccc(CC)cc2)ccc1Cl |  | inactive: -13.1% |
| COC(=O)c1cc(CN2CCN(c3ccccc3C)CC2)ccc1O | inconclusive: 20.6 µM [inhibitor, single point] |  |
| CCNc1nc(SCc2ccccc2)nc(N2CCOCC2)n1 | inconclusive: 11.2 µM [inhibitor, partial curve, poor fit] |  |
| CCCn1c(NCc2c[nH]c3ccccc23)nc2ccccc21 | inconclusive: 29.1 µM [inhibitor, single point] |  |
| CCOc1ccc(NC(=O)Cn2c(=O)n(CC(=O)NCCc3ccccc3)c(=O)c3sccc32)cc1 |  | inactive: -16.3% [at 46.1 µM] |

| Structure (SMILES) | Potency | activity change, negative = inhibition |
| --- | --- | --- |
| c1ccc2cc(C3N4CCCN34)ccc2c1 (stereo not drawn) |  | inactive: 1.64% [at 46.1 µM] |
| c1ccc(CCNCc2ccco2)nc1 |  | inactive: 1.9% |
| N#Cc1ccc(-c2cccnc2)nc1SCC(=O)Nc1sc2c(c1C#N)CCC2 | inactive |  |
| O=C(NC(=S)NCc1ccc(Cl)cc1Cl)c1ccco1 | inconclusive: 0.708 µM [inhibitor, single point] |  |
| Cc1ccc2c(CC(=O)Nc3c(C(=O)c4ccc(F)cc4)oc4ccccc34)coc2c1C |  | inactive: 20.7% [at 46.1 µM] |
| NC(=O)CN1C(=O)/C(=c2\sc3nc(=O)c(Cc4ccccc4)nn3c2=O)c2ccccc21 | inconclusive: 2.82 µM [activator, partial curve, poor fit] |  |
| c1ccc(Oc2c3ccccc3nc3ccccc23)cc1 |  | inactive: -27.5% |
| COc1cccc(N2CCN(c3ccc4nnc(CCC(=O)N5CCC(C)CC5)n4n3)CC2)c1 |  | inactive: -0.0163% [at 46.1 µM] |
| Cc1ccnn1-c1ccc(C(=O)NCc2ccccc2CN2CCOCC2)cc1 | inconclusive: 0.891 µM [inhibitor, full curve, poor fit] |  |
| CCN1C(=NCCc2c[nH]c3ccccc23)N[C@@H](c2ccccc2)C(C(=O)OC)=C1C | inconclusive: 0.0473 µM [inhibitor, partial curve, poor fit] |  |
| Cc1ccc2nc(C)cc(NCCO)c2c1 | inconclusive: 1.26 µM [activator, single point] |  |
| O=C(NN=C1CCCC1)c1sc2ccccc2c1Cl | inconclusive: 35.5 µM [inhibitor, single point] |  |
| CCOC(=O)c1ccc(NC(=O)c2sc3nc4n(c(=O)c3c2C)CCC4)cc1 | inconclusive: 11.2 µM [activator, partial curve, poor fit] |  |
| COc1cccc(CN2CCC(Oc3ccc(C(=O)N4CCCCC4)cc3)CC2)c1O | inconclusive: 4.47 µM [inhibitor, partial curve] |  |
| N#Cc1cnn2c(-c3ccc(Cl)cc3Cl)ccnc12 | inconclusive: 35.5 µM [inhibitor, partial curve, poor fit] |  |
| Cc1ccc(Nc2nc(CSc3nnc(-c4ccccc4)n3C)cs2)cc1 | inconclusive: 20 µM [inhibitor, single point] |  |
| COC(=O)c1[nH]c2ccc(Cl)cc2c1NC(=O)C1CC1 | inconclusive: 35.5 µM [inhibitor, single point] |  |
| Cc1ccc(S(=O)(=O)CCC(=O)OCC(=O)c2ccc(C)c(C)c2)cc1 |  | inactive: -2.41% |
| CCc1nnc(NS(=O)(=O)c2ccc(NC(=S)NC(=O)c3cccnc3)cc2)s1 | inconclusive: 3.98 µM [activator, partial curve, poor fit] |  |
| Cc1cc(Br)c(OCc2ccc(C(=O)N/N=C3\CC(=O)CC(C)(C)C3)cc2)c(Br)c1 |  | inactive: 3.1% |
| CC(C)(Oc1ccc(Cl)cc1)C(=O)Nc1ccncc1 | inconclusive: 7.08 µM [inhibitor, full curve, poor fit] |  |

Of the compounds above, two contain a cyano group:

| Structure (SMILES) | Potency | activity change, negative = inhibition |
| --- | --- | --- |
| N#Cc1ccc(-c2cccnc2)nc1SCC(=O)Nc1sc2c(c1C#N)CCC2 | inactive |  |
| N#Cc1cnn2c(-c3ccc(Cl)cc3Cl)ccnc12 | inconclusive: 35.5 µM [inhibitor, partial curve, poor fit] |  |
